# Data as given in PubChem BioAssay AID2517 (National Center for Advancing Translational Sciences (NCATS), 2010).
# Protein sequences, listed by entry. Tags and fused reporters are not part of them.
# UniProt P27695, whole entry, looked up: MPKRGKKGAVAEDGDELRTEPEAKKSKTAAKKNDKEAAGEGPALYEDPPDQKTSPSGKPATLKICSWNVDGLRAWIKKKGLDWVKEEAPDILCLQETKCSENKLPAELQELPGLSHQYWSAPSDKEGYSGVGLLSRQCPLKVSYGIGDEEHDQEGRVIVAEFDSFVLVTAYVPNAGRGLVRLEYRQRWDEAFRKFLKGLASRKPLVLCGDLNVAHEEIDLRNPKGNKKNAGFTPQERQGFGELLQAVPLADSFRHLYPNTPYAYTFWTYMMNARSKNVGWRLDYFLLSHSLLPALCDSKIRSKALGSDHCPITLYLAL
# About 1,200 (0.34%) of roughly 350,000 compounds were called active. Inconclusive means that the source gave no clear call. Such entries were picked first, then a sample of the others. The call rests on the fitted dose curve; in most records, active means well fitted inhibition curve with a large enough effect; inconclusive means small, poorly fitted or top-dose-only effect; inactive means no such curve, though single readings can be large or run the other way. Where the call is inconclusive, the potency comes from a doubtful curve fit.
# Target: DNA repair nuclease/redox regulator APEX1 (Homo sapiens) (UniProt P27695)
# Experiment: qHTS Assay for Inhibitors of the Human Apurinic/apyrimidinic Endonuclease 1 (APE1); further: nearly all actives have a fitted effect of over 55% in size;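 on activity change, negative = inhibition: plate controls were vehicle for no effect and reference inhibitor for full effect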
# Conditions: recombinant APE1, TAMRA/BHQ-2 abasic DNA cleavage fluorescence; activity change, negative = inhibition: at 65.8 µM (top of the series)
# Summary of the method: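 Measures dequenching upon AP-site incision of a 5'-TAMRA/3'-BHQ-2 THF-containing duplex, 50 nM; human APE1 0.75 nM after 15 min room-temperature exposure to compound; kinetic three-point read at one-minute spacing.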
# Potency means the concentration at half of the fitted maximal effect.
Compound,Potency,"activity change, negative = inhibition"
CN(C)/C=C/C=C1C(=O)CCCC1=O,"inconclusive: 20 µM [inhibitor, partial curve]",–
O=C(COC(=O)C1CC(=O)N(Cc2ccccc2)C1)Nc1ccccc1F (stereo not given),"inconclusive: 11.2 µM [inhibitor, partial curve, poor fit]",–
Cc1ccsc1/C=N/Nc1nc(Cl)c(Cl)cc1Cl,"inconclusive: 10 µM [inhibitor, full curve, poor fit]",–
Cn1cc(-c2ccccc2C(N)=O)c(=O)c2cc(Cl)ccc21,inactive,–
CCCCN(C(=O)c1cccc(-n2cccc2)c1)c1c(N)n(Cc2ccccc2)c(=O)[nH]c1=O,active: 2.67 µM,–
Nc1cc(=O)[nH]c(SCC(=O)Nc2ccc3c(c2)CCC3)n1,"inconclusive: 39.8 µM [inhibitor, single point]",–
COc1cc(/C=C/C(=O)OCC(=O)Nc2ccc(S(=O)(=O)N3CCCC3)cc2)ccc1O,"inconclusive: 22.4 µM [inhibitor, single point]",–
O=S(=O)(Nc1nccs1)c1ccc(NS(=O)(=O)c2cccs2)cc1,inactive,–
COC(=O)c1sc2cc(C(F)(F)F)cnc2c1-c1cccnc1,inactive,–
C#CCn1c(=O)c2c(nc(/C=C/c3cccc(OC)c3)n2C)n(CCCOP(=O)(O)O)c1=O,inactive,–
CCOC(=O)c1ccc(NC(=O)COC(=O)c2cccc(Oc3ccccc3)c2)cc1,"inconclusive: 20 µM [inhibitor, single point]",–
Cc1ccc(C2NC(c3ccc(C)cc3)C([N+](=O)[O-])C(C)(C)C2[N+](=O)[O-])cc1 (stereo not given),"inconclusive: 35.5 µM [inhibitor, single point]",–
Cc1ccc(/C=C2\SC(=S)N(c3cccnc3)C2=O)o1,active: 15.8 µM,–
COc1cc(Nc2ccccc2Cl)c([N+](=O)[O-])nc1[N+](=O)[O-],"inconclusive: 70.8 µM [inhibitor, partial curve, poor fit]",–
COc1cc(/C=N/NC(=O)c2ccc(CSc3nncn3C)cc2)cc(OC)c1O,"inconclusive: 17.8 µM [inhibitor, single point]",–
CC(C)Cn1nnnc1S(=O)(=O)CCc1ccccc1,inactive,–
COc1cc2ncnc(NCc3ccco3)c2cc1OC,"inconclusive: 3.55 µM [inhibitor, single point]",–
O=c1[nH]c(Cc2ccccc2)nc2scc(-c3ccccc3)c12,"inconclusive: 0.891 µM [inhibitor, full curve]",–
O=C(NCCN1C(=O)S/C(=C/c2cccnc2)C1=O)C1=NN(c2ccccc2)C(=O)CC1,inactive,–
COC(CNC(=O)c1coc2nc3ccccc3nc12)OC,"inconclusive: 10 µM [inhibitor, single point]",–
CCC(C)n1c(NC(=O)c2ccccc2)c(C#N)c2nc3ccccc3nc21 (stereo not given),inactive,–
O=c1[nH]c2ccccc2nc1/C=C/c1ccccc1,inactive,–

Compound,Potency,"activity change, negative = inhibition"
O=C(NC12CC3CC(CC(C3)C1)C2)N1CCC(O)(c2ccc3c(c2)OCO3)CC1,"inconclusive: 3.55 µM [inhibitor, partial curve]",–
COc1ccc(N2C(=O)CC(S/C(N)=N/N=C(\C)c3cccs3)C2=O)cc1 (stereo not given),"inconclusive: 15.8 µM [inhibitor, partial curve]",–
C/C(=N\NC(=S)NC1CCCCC1)c1ccc(Cl)c(Cl)c1,"inconclusive: 25.1 µM [inhibitor, single point]",–
CCN1CCN(C(c2ccc(F)cc2)c2nnnn2Cc2ccc3c(c2)OCO3)CC1 (stereo not given),"inconclusive: 1.78 µM [inhibitor, partial curve, poor fit]",–
Cc1ccc(C2CC(=O)Oc3cc4c(cc32)OCO4)cc1 (stereo not given),"inconclusive: 31.6 µM [inhibitor, partial curve]",–
CSC(=NC#N)N1CCN(C(=NC#N)SC)CC1,"inconclusive: 0.891 µM [inhibitor, full curve, poor fit]",–
O=C(OCCCN1CCOCC1)c1ccc(O)c(O)c1,inactive,–
CCOc1c(CNc2nnnn2C)cccc1OC,"inconclusive: 0.447 µM [inhibitor, full curve, poor fit]",–
Cc1cnc(CNc2ncnc3ccc(-c4ccc(C(=O)N(C)C)cc4)cc23)cn1,inactive,–
COc1cc(/C=C2/NC(=O)N(Cc3ccccc3F)C2=O)ccc1Oc1ccc([N+](=O)[O-])cn1,"inconclusive: 22.4 µM [inhibitor, single point]",–
CC1=C(C(=O)N2CCOCC2)C(c2cc(C)cs2)NC(=O)N1 (stereo not given),"inconclusive: 39.8 µM [inhibitor, single point]",–
Cc1ccc(/C=C/C(=O)Nc2ncc(C)s2)o1,"inconclusive: 39.8 µM [inhibitor, single point]",–
COc1ccc(NC(=O)C2CCCN(c3nccc(C)n3)C2)cc1 (stereo not given),"inconclusive: 7.94 µM [inhibitor, single point]",–
CC(C)[C@H](CO)Nc1nc(NCc2ccc(S(N)(=O)=O)cc2)c2ncn(C(C)C)c2n1,"inconclusive: 25.1 µM [inhibitor, partial curve]",–
CC(C)CC(COCc1ccc([N+](=O)[O-])cc1)N1CCN(C(=O)c2ccc(C(F)(F)F)cc2)CCC1=O (stereo not given),"inconclusive: 3.16 µM [inhibitor, partial curve]",–
COc1ccc(NC(=O)Cn2c(-c3ccccc3)cn(-c3ccc(C)cc3)c2=O)cc1,"inconclusive: 39.8 µM [inhibitor, single point]",–
C=CC[C@@H]1C=C[C@@H](O/N=C\C[C@@H]2C=C[C@H](OC(C)=O)[C@H](COC(C)=O)O2)[C@@H](CO)O1,–,inactive: 12.5% [at 12.4 µM]
Cc1nnc(N/N=C/c2ccc(-c3ccccc3F)o2)n1N,inactive,–
Cc1nc(NC(=O)c2ccccc2)sc1-c1csc(Nc2ccc(Cl)cc2)n1,"inconclusive: 28.2 µM [inhibitor, single point]",–
CCOC(=O)c1c(C)[nH]c(C(=O)COC(=O)C2(C)CC2(Cl)Cl)c1C (stereo not given),"inconclusive: 31.6 µM [inhibitor, partial curve]",–
Cn1nnnc1SC(C(=O)Nc1cccc(C(F)(F)F)c1)c1ccccc1 (stereo not given),"inconclusive: 8.91 µM [inhibitor, full curve]",–
COc1cc(C(=O)Nc2nnc(-c3sccc3C)s2)cc(OC)c1OC,inactive,–

# Structures above containing a halogen, in the order listed:
Compound,Potency,"activity change, negative = inhibition"
O=C(COC(=O)C1CC(=O)N(Cc2ccccc2)C1)Nc1ccccc1F (stereo not given),"inconclusive: 11.2 µM [inhibitor, partial curve, poor fit]",–
Cc1ccsc1/C=N/Nc1nc(Cl)c(Cl)cc1Cl,"inconclusive: 10 µM [inhibitor, full curve, poor fit]",–
Cn1cc(-c2ccccc2C(N)=O)c(=O)c2cc(Cl)ccc21,inactive,–
COC(=O)c1sc2cc(C(F)(F)F)cnc2c1-c1cccnc1,inactive,–
COc1cc(Nc2ccccc2Cl)c([N+](=O)[O-])nc1[N+](=O)[O-],"inconclusive: 70.8 µM [inhibitor, partial curve, poor fit]",–
C/C(=N\NC(=S)NC1CCCCC1)c1ccc(Cl)c(Cl)c1,"inconclusive: 25.1 µM [inhibitor, single point]",–
CCN1CCN(C(c2ccc(F)cc2)c2nnnn2Cc2ccc3c(c2)OCO3)CC1 (stereo not given),"inconclusive: 1.78 µM [inhibitor, partial curve, poor fit]",–
COc1cc(/C=C2/NC(=O)N(Cc3ccccc3F)C2=O)ccc1Oc1ccc([N+](=O)[O-])cn1,"inconclusive: 22.4 µM [inhibitor, single point]",–
CC(C)CC(COCc1ccc([N+](=O)[O-])cc1)N1CCN(C(=O)c2ccc(C(F)(F)F)cc2)CCC1=O (stereo not given),"inconclusive: 3.16 µM [inhibitor, partial curve]",–
Cc1nnc(N/N=C/c2ccc(-c3ccccc3F)o2)n1N,inactive,–
Cc1nc(NC(=O)c2ccccc2)sc1-c1csc(Nc2ccc(Cl)cc2)n1,"inconclusive: 28.2 µM [inhibitor, single point]",–
CCOC(=O)c1c(C)[nH]c(C(=O)COC(=O)C2(C)CC2(Cl)Cl)c1C (stereo not given),"inconclusive: 31.6 µM [inhibitor, partial curve]",–
Cn1nnnc1SC(C(=O)Nc1cccc(C(F)(F)F)c1)c1ccccc1 (stereo not given),"inconclusive: 8.91 µM [inhibitor, full curve]",–

# The listing continues.

Compound,Potency,"activity change, negative = inhibition"
Cc1ccc(NC(=S)/N=C(\N)Nc2nc(C)c3ccccc3n2)cc1C,"inconclusive: 31.6 µM [inhibitor, single point]",–
CC(C)NC(=O)CSc1nc(-c2ccccc2)cs1,"inconclusive: 7.08 µM [inhibitor, single point]",–
Cc1ccc(C(=O)NNC(=O)c2cc3cc4ccccc4nc3s2)cc1,active: 22.4 µM,–
CCSCCNC(=O)c1cncc(Br)c1,"inconclusive: 39.8 µM [inhibitor, single point]",–
O=C(Nc1cccc(Cl)c1)OCCOc1ccccc1,inactive,–
N#CC1(c2ccc(NC(=O)c3ccccc3)cc2)CCCC1,inactive,–
COC(=O)c1ccc(Cn2c(O)c(N=NC(N)=S)c3ccccc32)o1,"inconclusive: 31.6 µM [inhibitor, single point]",–
CCOC(=O)c1cc(-c2ccc(N3CCOCC3)cc2)nn1-c1ccccc1C(=O)O,active: 2.51 µM,–
COc1ccc(/C=C/C(=O)Oc2ccc(C)c(C)c2)cc1OC,"inconclusive: 35.5 µM [inhibitor, partial curve, poor fit]",–
COc1ccc2c(c1)C(=O)c1ccccc1CO2,"inconclusive: 7.08 µM [inhibitor, single point]",–
O=C(/C=C/c1ccco1)Nc1sc2c(c1C(=O)O)CCC2,"inconclusive: 31.6 µM [inhibitor, single point]",–
CCOc1cc(/C=C2/C(=N)N3OC(C)=CC3=NC2=O)ccc1OC,"inconclusive: 7.08 µM [inhibitor, partial curve]",–
CC1CCN(C2=NN3C(=N)/C(=C\c4ccc(OC(=O)c5ccco5)cc4)C(=O)N=C3S2)CC1,"inconclusive: 10.6 µM [inhibitor, partial curve]",–
COCCN=c1scc(-c2cc(OC)c(OC)c(OC)c2)n1/N=C/c1c(C)[nH]c2ccccc12,"inconclusive: 31.6 µM [inhibitor, single point]",–
CC1(C)OC(C(O)(c2cc(F)c(F)c(F)c2)c2cc(F)c(F)c(F)c2)C(C(O)(c2cc(F)c(F)c(F)c2)c2cc(F)c(F)c(F)c2)O1 (stereo not given),"inconclusive: 3.98 µM [inhibitor, single point]",–
Nc1ccc(-c2nc3c(Cl)cc(N)cc3[nH]2)cc1,"inconclusive: 44.7 µM [inhibitor, single point]",–
COc1ccc(/C=C/C(=O)NCCc2nc3ccccc3[nH]2)cc1,"inconclusive: 2.51 µM [inhibitor, partial curve, poor fit]",–
Cc1c(C(=O)Nc2nc3ccccc3[nH]2)oc2ccccc12,inactive,–
CC[C@H](C)[C@H](NC(=O)[C@H](Cc1ccccc1)NC(=O)[C@H](C)NC(=O)[C@H](CC(=O)O)NC(=O)[C@H](CCCCN)NC(=O)[C@H](CO)NC(=O)[C@@H]1CCCN1C(=O)[C@@H]1CCC(=O)N1)C(=O)NCC(=O)N[C@@H](CC(C)C)C(=O)N[C@@H](CCSC)C(N)=O,inactive,–
C=CCc1cccc2cc(C(=O)Nc3ccc(S(=O)(=O)Nc4nnc(CC)s4)cc3)c(=O)oc12,"inconclusive: 35.5 µM [inhibitor, single point]",–
C[C@@H]1O[C@@H](OC[C@H]2O[C@@H](Oc3c(-c4ccc(O)c(O)c4)oc4cc(O)cc(O)c4c3=O)[C@H](O)[C@@H](O)[C@@H]2O)[C@H](O)[C@H](O)[C@H]1O,"inconclusive: 25.1 µM [inhibitor, partial curve]",–
